# Values of other authors, collected in patent US20100260747A1, “Use of Tetrahydrobiopterin as a Marker and a Therapeutic Agent for Fabry Disease” (BAYLOR RESEARCH INSTITUTE, priority 2009, published 2010).
# At least one structure is not confirmed: it was looked up by name or label, or the drawing left a doubt.
# Tested on: mouse model of chronic pressure load in the heart
smiles,measurement,value
"C[C@H](O)[C@H](O)[C@H]1CNc2nc(N)[nH]c(=O)c2N1 [BH4, tetrahydrobiopterin]",effect of BH4 supplementation on cardiac abnormalities,reversed the cardiac abnormalities
